The values below come from PMC12058595.

Where a protein sequence is shown, tags need not be part of it.

This data set addresses T1, His6-Zur (Synechocystis sp. PCC 6803) (UniProt P73084).
T1 sequence (looked up): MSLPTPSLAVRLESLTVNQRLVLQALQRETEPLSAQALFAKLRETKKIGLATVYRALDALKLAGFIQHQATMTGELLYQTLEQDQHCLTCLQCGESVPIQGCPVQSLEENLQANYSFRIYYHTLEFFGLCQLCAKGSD
Put plainly: EMSA. The conditions noted are these: 0, 0.3, 0.6 ug Zur, 30 ng DNA; 10 mM Tris (pH not stated), 50 mM KCl, 1 mM DTT, 5% glycerol, BSA in lanes without Zur; room temperature 20 min; 6% native PAGE in TBE at 4 C, SYBR Safe stain; recombinant protein; residues 1-138; protein details: N-terminal His6 (pET28a, NdeI/XhoI); probe letters rebuilt from the primers and the genome. A general note: Mobility shift assays separate free from complexed probe on a gel.
On to “ATCAGCGGTCTCCAAAATCAAGAATCAAACAAAGTAACTATTGGGTTAGTCTAGTACGGCTAATGCACCCGACTTCCCGGAACCCAAGTTAATTCCCGCCGGGGCATTTTAGTACGTTGAATAAAACTTTTCACCGCTAATATCGGTACAGAAAAATTGATTACGTCCTGGGCGAGTCCACAGACATCGCGTTCCCCTGTGGGGGCAATTACGGTAACGGCTCATAAATCTTTGTTAAAGATTACTTAACCCGTCAGTAAAATGCCGTAACACTAATTACCTTTTCCCCTTACTCCAGAGGAGAACAGCAGCGGCAAGCCACCAATCTCTGGTTTTTGGAAAGCCGCCCCTGGACTATGGAAAAAGTAGTTACTTGTTAAGTATAGTAACAGAAAAAGCTTTTCTGGCAAGATTTCTGCTTCTGGAGTTGGGGGTATCCTCTGGAAATTTAC (double strand) [sll1566 (GGPS) promoter]”, for which the binding result is given as “binds”. Consider “GTTGATCACTTTGCTATGGGAACAATGCAAATTAATGAGTAGAGTTTAACCCCATACTATTTCTAAAATCAAGCACCATTTCATCCCTTATCCCATTTCTTCAACGATCAGCCATGACTAATCGTTTTTGCTCTTCAATCTATGGGAAATCTATCCCTTGGGAAGTATCTATTGTTACATTTGCCATGATCAAATTCCCTTTTTTGATATAGGTTCAACTCTTTTTAGTTAAGTATCCCTAATTACTTAAGTAGGAGGAAAATCCCGAGTCGTCCCTCAAAAAGCTTTACTCTCAGACTGATTTTCGGTCTAATGTTCTTATTATTAAAATAACATTTAAGGTCATTAGCTCTTAATTTTGGAAGTATTCCTATGGCCGGTGATGGAGATGGCAGGATTTTCTGCGGGCCCTGCTTAAGGGTAAGAAAAAACTGTTTGCTCCGTTTAATGAGTTCAAA (double strand) [sll1291 gene cluster promoter]”, for which the binding result is “binds”. The value for “GATAGGGAAAAGGGGCTGAGGCAATTTGTCATTGGCACCGGCGGCAAAAGTCTTTATCCTTTCAAAACCGTGCGCCCCAACAGTGAAGTTCAGGCAATGGGAGTTTATGGAGTGCTGAAAATGGAACTCCAATCCAACAGCTACCGCTGGCAATTCCTAACCGCCAACACCGACGAATTCAATGAACAGGGGAAGGATTTATGTCATTAAAGGGGGCAATCATGCCATTACTGGGGCCCTTTGCCATGGCCCAAAACCAGGAAAATACTAATAAATTCCATCACCCATTCTAATTCTCCTTTGCGGCAAACCTGCGCTAAGCTTATTCGTGAGCATTTCTCGGTTGTACCTATGGACTTTTCTAGTAACGTTGCAGCGCAACTCAATGCGGGGACAATTTTGCCAGAGGGCATTGTTATTGTCACTCTCCTCCTTGTGCTAATTGTTGATTTGATTG (double strand) [sll0223 (ndhB) promoter]” was “binds”; that for “GATTTAGGTTCAGCAAAATGGCCATCTACTTATCATAATCACTGGCGATCGCCAAGCTTTGTTTTTGTCCTCCGGAAATATTTGCCCCTACCGCACCGAGAATCGTTTCGTATTGCTCGGGAAATTGATTAACAAATCACGGGCATGGATAATTTGTCAAGCTAAAGTCACCTTAGAAAGGTGTATCTCAGGCAAGCTTAAAAATATAAATAACGTCAATTTTACAAAAAAAATGCTAGGGGAATATTAAGAGAACATTAAGGTTGTTGAAAATAGCTAAAAATAATTAAAATTTGTATGATTTTGACCAAAAGTGAACTTTGTGTTATGGTTACAGGGCGTGGTTGACTCGAGTTCAATACAGAACTCAAGGGCTCCGGGTAAATGTTTAAATTTTTGTAAAATCTGTAAAGCATTAATAAAAAACTTTTCCAAAAATTTGGATTTTACCTCAATCACT (double strand) [sll0723 promoter]” was “binds”; that for “ACTAATACTACTCAATTCTCGGTGGGGCAAATTGGGAATAATTACCCCTTTGTCCGTATCTCGGCCCCGACCTTCCGCCAAAAATAGCAGGGTATCCGCCACCCGGGTTAAACTTTCTGCTTCCCTCAGCCGCAAACGACGGTTAAGTTGCCGCAGACGGCGAGCAATGATCTGGGCTAAACGAATGCCCGCCATGGGCTCTGTTTGGAGAAAATTGTAAAATTCCGGAGCTGGTACACTGCACACTTCCGCCGGGGTAAGGGTGATGACGTCGGTGGAGCGGGGAGCCTCTTCGATCGCCGCCATTTCCCCGACAATCTCTCCCCGGCCGACAATGTTGAGGGTTACTTCCCGACCATCCACATTATGGGTGCGAATTTTGACCCAGCCATCCATGACGAAATAAACTGAGCCGCCCCAGTCATGTTCGAGGAGAATAACTTGGTTGGC (double strand) [sll1371 (sycrp1) promoter]” was “binds”.

With “ACTCACCGTAATATCCATGGCATCTGCCACCGGAGCATCCTCAACTTGACCATTTTGCCCAACCTGTTCAACAGCGGGCTGACAGCCTAGGGTGCTCAAACCCAGAACAAAAGCAACACCAAGGGGTTGGACAAAGCGGGGAACAGCGGGGAAAATGAACATTACCGATGTGCAATACAGTGAAGATCAAGCTGATGGGAAATTTATCCCTTTGGCATTAGGACAATAAACGATAATCATTATCATTGCATAATTCCTCCACCTTGTCATGAGTCTTCCCACTCCTTCCCTTGCCGTTCGCCTAGAGTCCCTCACAGTCAACCAAAGACTGGTGCTCCAAGCTTTGCAAAGGGAAACGGAGCCCCTGTCGGCCCAAGCCCTCTTCGCCAAACTGCGGGAA (double strand) [slr2043 (znuA) promoter]”, the binding result is “binds”. Consider “GTAACTCCTCGGCACTGAGATGTTCCCCCTCCGGCAAATTTTGAAAAATGGTGAGGATTTTTTCCCGCTGGGGAGTCAGTCGCCAACCACGGGCATTAAGTTCGGCTTTGAGGGAATCGGCGGTGTAGGACATGTTCTATGGGGGCGCTTAGAAGCAGTCTGGGCGATGGGATCCATCATAGTCCCTTGGCTCAGCAGTTGCAATAGTGGAGTCTTATTGAGAATAGATCCTAGAAAAAGTTTTATTTATCTTCCCCCGTCTGAAAATCTGAACCATGCGACCTTCCGCCCTTATTCCCCCCCAGCGTTATTTTGCCTACCTAACGTGGACCGATATTGAAGCTCTGCCGGATAAGGACAAAACCATTATTATTCAGCCCCTGGGTTCCATTGAACAGCATGGTCCCCATTTACCATTGGTGGTGGATGCAGCCATTTCTGAGGGGGTTTTG (double strand) [sll0567 (fur) promoter]”, for which the binding result is listed as “binds”.
